Experimental data taken from PMC5841321.

T1: E3 ubiquitin-protein ligase Midline-1 (UniProt O15344)
T1 sequence: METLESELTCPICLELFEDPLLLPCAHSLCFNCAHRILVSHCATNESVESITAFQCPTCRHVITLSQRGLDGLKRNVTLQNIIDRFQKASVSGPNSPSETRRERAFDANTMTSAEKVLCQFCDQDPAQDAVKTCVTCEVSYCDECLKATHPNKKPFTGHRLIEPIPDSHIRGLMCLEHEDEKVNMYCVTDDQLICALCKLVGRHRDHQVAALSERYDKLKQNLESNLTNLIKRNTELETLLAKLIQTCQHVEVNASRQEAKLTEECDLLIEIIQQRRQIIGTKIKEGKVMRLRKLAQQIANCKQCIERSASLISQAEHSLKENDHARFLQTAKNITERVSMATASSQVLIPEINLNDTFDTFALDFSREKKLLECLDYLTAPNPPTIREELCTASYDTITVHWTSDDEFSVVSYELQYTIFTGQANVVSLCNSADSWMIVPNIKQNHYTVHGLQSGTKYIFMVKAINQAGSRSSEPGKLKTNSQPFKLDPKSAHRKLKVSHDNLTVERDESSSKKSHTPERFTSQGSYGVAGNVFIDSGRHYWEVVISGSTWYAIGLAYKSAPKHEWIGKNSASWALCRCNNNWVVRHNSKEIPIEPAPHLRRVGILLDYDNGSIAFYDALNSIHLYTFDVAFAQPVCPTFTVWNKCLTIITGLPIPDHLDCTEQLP

B1: Interleukin enhancer-binding factor 3 (protein, UniProt Q12906 1-894)
chain: MRPMRIFVNDDRHVMAKHSSVYPTQEELEAVQNMVSHTERALKAVSDWIDEQEKGSSEQAESDNMDVPPEDDSKEGAGEQKTEHMTRTLRGVMRVGLVAKGLLLKGDLDLELVLLCKEKPTTALLDKVADNLAIQLAAVTEDKYEILQSVDDAAIVIKNTKEPPLSLTIHLTSPVVREEMEKVLAGETLSVNDPPDVLDRQKCLAALASLRHAKWFQARANGLKSCVIVIRVLRDLCTRVPTWGPLRGWPLELLCEKSIGTANRPMGAGEALRRVLECLASGIVMPDGSGIYDPCEKEATDAIGHLDRQQREDITQSAQHALRLAAFGQLHKVLGMDPLPSKMPKKPKNENPVDYTVQIPPSTTYAITPMKRPMEEDGEEKSPSKKKKKIQKKEEKAEPPQAMNALMRLNQLKPGLQYKLVSQTGPVHAPIFTMSVEVDGNSFEASGPSKKTAKLHVAVKVLQDMGLPTGAEGRDSSKGEDSAEETEAKPAVVAPAPVVEAVSTPSAAFPSDATAEQGPILTKHGKNPVMELNEKRRGLKYELISETGGSHDKRFVMEVEVDGQKFQGAGSNKKVAKAYAALAALEKLFPDTPLALDANKKKRAPVPVRGGPKFAAKPHNPGFGMGGPMHNEVPPPPNLRGRGRGGSIRGRGRGRGFGGANHGGYMNAGAGYGSYGYGGNSATAGYSQFYSNGGHSGNASGGGGGGGGGSSGYGSYYQGDNYNSPVPPKHAGKKQPHGGQQKPSYGSGYQSHQGQQQSYNQSPYSNYGPPQGKQKGYNHGQGSYSYSNSYNSPGGGGGSDYNYESKFNYSGSGGRSGGNSYGSGGASYNPGSHGGYGGGSGGGSSYQGKQGGYSQSNYNSPGSGQNYSGPPSSYQSSQGGYGRNADHSMNYQYR
B2: Heterogeneous nuclear ribonucleoprotein R (protein, UniProt O43390 1-633)
chain: MANQVNGNAVQLKEEEEPMDTSSVTHTEHYKTLIEAGLPQKVAERLDEIFQTGLVAYVDLDERAIDALREFNEEGALSVLQQFKESDLSHVQNKSAFLCGVMKTYRQREKQGSKVQESTKGPDEAKIKALLERTGYTLDVTTGQRKYGGPPPDSVYSGVQPGIGTEVFVGKIPRDLYEDELVPLFEKAGPIWDLRLMMDPLSGQNRGYAFITFCGKEAAQEAVKLCDSYEIRPGKHLGVCISVANNRLFVGSIPKNKTKENILEEFSKVTEGLVDVILYHQPDDKKKNRGFCFLEYEDHKSAAQARRRLMSGKVKVWGNVVTVEWADPVEEPDPEVMAKVKVLFVRNLATTVTEEILEKSFSEFGKLERVKKLKDYAFVHFEDRGAAVKAMDEMNGKEIEGEEIEIVLAKPPDKKRKERQAARQASRSTAYEDYYYHPPPRMPPPIRGRGRGGGRGGYGYPPDYYGYEDYYDDYYGYDYHDYRGGYEDPYYGYDDGYAVRGRGGGRGGRGAPPPPRGRGAPPPRGRAGYSQRGAPLGPPRGSRGGRGGPAQQQRGRGSRGSRGNRGGNVGGKRKADGYNQPDSKRRQTNNQQNWGSQPIAQQPLQQGGDYSGNYGYNNDNQEFYQDTYGQQWK
B3: Isoleucine--tRNA ligase, cytoplasmic (protein, UniProt P41252 1-1262)
chain: MLQQVPENINFPAEEEKILEFWTEFNCFQECLKQSKHKPKFTFYDGPPFATGLPHYGHILAGTIKDIVTRYAHQSGFHVDRRFGWDCHGLPVEYEIDKTLGIRGPEDVAKMGITEYNNQCRAIVMRYSAEWKSTVSRLGRWIDFDNDYKTLYPQFMESVWWVFKQLYDKGLVYRGVKVMPFSTACNTPLSNFESHQNYKDVQDPSVFVTFPLEEDETVSLVAWTTTPWTLPSNLAVCVNPEMQYVKIKDVARGRLLILMEARLSALYKLESDYEILERFPGAYLKGKKYRPLFDYFLKCKENGAFTVLVDNYVKEEEGTGVVHQAPYFGAEDYRVCMDFNIIRKDSLPVCPVDASGCFTTEVTDFAGQYVKDADKSIIRTLKEQGRLLVATTFTHSYPFCWRSDTPLIYKAVPSWFVRVENMVDQLLRNNDLCYWVPELVREKRFGNWLKDARDWTISRNRYWGTPIPLWVSDDFEEVVCIGSVAELEELSGAKISDLHRESVDHLTIPSRCGKGSLHRISEVFDCWFESGSMPYAQVHYPFENKREFEDAFPADFIAEGIDQTRGWFYTLLVLATALFGQPPFKNVIVNGLVLASDGQKMSKRKKNYPDPVSIIQKYGADALRLYLINSPVVRAENLRFKEEGVRDVLKDVLLPWYNAYRFLIQNVLRLQKEEEIEFLYNENTVRESPNITDRWILSFMQSLIGFFETEMAAYRLYTVVPRLVKFVDILTNWYVRMNRRRLKGENGMEDCVMALETLFSVLLSLCRLMAPYTPFLTELMYQNLKVLIDPVSVQDKDTLSIHYLMLPRVREELIDKKTESAVSQMQSVIELGRVIRDRKTIPIKYPLKEIVVIHQDPEALKDIKSLEKYIIEELNVRKVTLSTDKNKYGIRLRAEPDHMVLGKRLKGAFKAVMTSIKQLSSEELEQFQKTGTIVVEGHELHDEDIRLMYTFDQATGGTAQFEAHSDAQALVLLDVTPDQSMVDEGMAREVINRIQKLRKKCNLVPTDEITVYYKAKSEGTYLNSVIESHTEFIFTTIKAPLKPYPVSPSDKVLIQEKTQLKGSELEITLTRGSSLPGPACAYVNLNICANGSEQGGVLLLENPKGDNRLDLLKLKSVVTSIFGVKNTELAVFHDETEIQNQTDLLSLSGKTLCVTAGSAPSLINSSSTLLCQYINLQLLNAKPQECLMGTVGTLLLENPLGQNGLTHQGLLYEAAKVFGLRSRKLKLFLNETQTQEITEDIPVKTLNMKTVYVSVLPTTADF
B4: Heterogeneous nuclear ribonucleoprotein M (protein, UniProt P52272 1-730)
chain: MAAGVEAAAEVAATEIKMEEESGAPGVPSGNGAPGPKGEGERPAQNEKRKEKNIKRGGNRFEPYANPTKRYRAFITNIPFDVKWQSLKDLVKEKVGEVTYVELLMDAEGKSRGCAVVEFKMEESMKKAAEVLNKHSLSGRPLKVKEDPDGEHARRAMQKVMATTGGMGMGPGGPGMITIPPSILNNPNIPNEIIHALQAGRLGSTVFVANLDYKVGWKKLKEVFSMAGVVVRADILEDKDGKSRGIGTVTFEQSIEAVQAISMFNGQLLFDRPMHVKMDERALPKGDFFPPERPQQLPHGLGGIGMGLGPGGQPIDANHLNKGIGMGNIGPAGMGMEGIGFGINKMGGMEGPFGGGMENMGRFGSGMNMGRINEILSNALKRGEIIAKQGGGGGGGSVPGIERMGPGIDRLGGAGMERMGAGLGHGMDRVGSEIERMGLVMDRMGSVERMGSGIERMGPLGLDHMASSIERMGQTMERIGSGVERMGAGMGFGLERMAAPIDRVGQTIERMGSGVERMGPAIERMGLSMERMVPAGMGAGLERMGPVMDRMATGLERMGANNLERMGLERMGANSLERMGLERMGANSLERMGPAMGPALGAGIERMGLAMGGGGGASFDRAIEMERGNFGGSFAGSFGGAGGHAPGVARKACQIFVRNLPFDFTWKMLKDKFNECGHVLYADIKMENGKSKGCGVVKFESPEVAERACRMMNGMKLSGREIDVRIDRNA

The binders below were run against T1, E3 ubiquitin-protein ligase Midline-1 (assay: affinity purification with mass spectrometry; MID1-FLAG expressed in HEK293T, lysate in TKM buffer (20 mM Tris pH 7.4, 100 mM KCl, 5 mM MgCl2, 0.5% NP40, 1 mM DTT), anti-FLAG M1 agarose overnight at 4 °C, 6 washes; untransfected cells as control; Q-Exactive, MaxQuant, 1% FDR).

binding | Binder
binds | B1
binds | B2
binds | B3
binds | B4

These are yes or no findings as the source states them, for the method shown. Binding seen in cells or lysates may run through a third protein. Here binding means that the protein was enriched with, or labelled near, the bait; the list need not be complete.
